# Screening data

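Luminescence from an EWS-FLI1 target-promoter (NR0B1) reporter, set against a CMV-promoter reporter, two days after silencing single genes in TC32 Ewing sarcoma cells.
Each siRNA was applied at 20 nM.
A z-score of the log NR0B1-over-CMV signal, less the median of siRNAs with the same seed; more negative means a stronger specific loss of the NR0B1 reporter.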

The strongest results of the screen are mostly left out here.
Sequences are the guide (antisense) strand, without overhang.

| Sequence | target gene | seed-corrected z-score |
|---|---|---|
| `AUAUUUGCAACCUGGAUAC` | BIRC8 | -0.9107 |
| `AUCGUCAAUAAUAAUUUCG` | GPCPD1 | -0.2379 |
| `AUUAGUAUCAUUGGACCGC` | KCNH1 | -0.05555 |
| `UCAGUACAAGGUAGUAUGC` | TMEM56 | 0.03317 |
| `ACUCUUACUAAUACACUGG` | PLCH1 | -0.9919 |
| `AUGGGAACAUCGAAGGUGG` | HMG20B | 0.01268 |
| `UCGCUUUUCUGAGUCAUCG` | ARHGEF10 | -0.1261 |
| `UACUAGUAGAUCUACCACC` | PARP8 | 0.4823 |
| `UGUAGCACCACACCCAUGA` | TVP23B | 0.5432 |
| `UUUGAUAAGUCCAUCCUCC` | CRMP1 | 0.02936 |
| `UCUUGGUCUGGUUUAAAGC` | VSX2 | -0.3902 |
| `UCAGGGUCCUCAAUGAAGC` | PLEKHJ1 | 1.334 |
| `UGAUCAAACAGGACUUUCC` | RHBDL3 | -0.9122 |
| `UUUGGAUGAAACAUUUUGG` | UBE2B | 0.138 |
| `UAAGUUUGCCGUCCACUGC` | HOXC8 | 0.1819 |
| `UCUGGAAUAACCGUAAGCC` | DGKD | -0.1424 |
| `UGAAGUUUCGCAGAGAUAG` | RTL1 | -0.7921 |
| `UGUAGAUGAAUCGAAAGGC` | GPR34 | -0.1404 |
| `UAUGAUGGACACCAUAACC` | C14orf1 | 1.227 |
| `UGUUGUACCAAGUUCGCGU` | EIF3J-AS1 | 1.319 |
| `UCUUUGAUCACGUCAGGAG` | MDGA1 | 0.2715 |
| `AUUGAUAGUAUUAUCGACC` | SETX | -1.356 |
| `AUGCGUUCCAUCACCACGG` | PDXK | -1.415 |
| `UUCCAUUCUAAGGAGACAG` | VPS37D | 1.062 |
| `UAAUUUCGAAGAAACAGAC` | VPS35 | 0.4341 |
| `UUGAGCUCAAUGAAGAUAC` | EPHA2 | 0.3095 |
| `UAGAUUGCCUGUCUUGUAG` | IFI30 | 0.1079 |
| `UCAGAAACACGUAAGAAUC` | GINS4 | 0.1627 |
| `UAAAUGAGGCCCGAAAUGC` | HIST1H4F | -0.06464 |
| `UCAGCUUUCAAGAGUCCAC` | DKFZp434E1119 | 0.05106 |
| `UAGAGAAUCCUCUGGUUGC` | ASPG | -1.419 |
| `UACCAGAAACACGUACACU` | DSPA2D | 0.6042 |
| `UUUCCGUUCAUCUACAAAC` | FILIP1L | -0.003658 |
| `UAUCUACCCAUUUCAUGCC` | DOCK7 | -0.1391 |
| `UUUUUCACUAGAGCCUUCC` | NEFM | -0.2159 |
| `UUCUUGUUGAUGCCCUCCC` | RGS19 | -0.3139 |
| `UGGAAUACAAGCUUUGAGG` | KCNMB4 | 0.6095 |
| `AAGCUGAUAAAUAAGGUCC` | NCOA4 | -0.3174 |
| `UCUCCAACCAUUGUCACGC` | OSBPL11 | 0.09432 |
| `UAGGCGGUCAUUCUUACGC` | COPG1 | -0.2412 |
| `UAUCGGUUUGGAAUCCUCC` | XPNPEP3 | 0.0907 |
| `UUGUAGACCAACAGGAAGU` | TIMM10B | -0.004217 |
| `UGAUCGACCGUGACUCUGG` | PGPEP1 | 0.4376 |
| `UACAUAUAUGGAUUGUCGC` | SPATS1 | 0.7755 |
| `UUAAAGUUGAAUGAAUCUG` | DDC | 0.6444 |
| `UGCAGGCACACUGAACAGC` | RNF152 | 1.418 |
| `UUGAGGAUCUCAGUUGUGA` | PHB | 0.6589 |
| `UGAGUUGUAAUUGACGAUG` | LHX9 | 0.3665 |
| `UAGAGGCAGAGCAAUUUCU` | C5orf63 | -0.9259 |
| `UGGUAUUCCAUGUUUAUUG` | GABRG3 | 0.01419 |
| `UUUGGUGUAAGAACCGUUG` | ADGRE4P | 0.1251 |
| `UAGAGUAAGAGGCCCAGGG` | B3GNT9 | -0.5962 |
| `UUAGUGGACAAGGUAAUUG` | LOC440982 | -1.01 |

3 of the entries, repeated:

{"sequence": "AUUGAUAGUAUUAUCGACC", "target gene": "SETX", "seed-corrected z-score": "-1.356"}
{"sequence": "UAGAUUGCCUGUCUUGUAG", "target gene": "IFI30", "seed-corrected z-score": "0.1079"}
{"sequence": "AUUAGUAUCAUUGGACCGC", "target gene": "KCNH1", "seed-corrected z-score": "-0.05555"}

Data taken from PubChem BioAssay AID1159506, deposited by NCATS (2015).